# Experimental data as given in publication doi:10.1101/2023.09.22.558856.
# Amino acid sequences for entries named in this document (tags omitted).
# UniProt P15381: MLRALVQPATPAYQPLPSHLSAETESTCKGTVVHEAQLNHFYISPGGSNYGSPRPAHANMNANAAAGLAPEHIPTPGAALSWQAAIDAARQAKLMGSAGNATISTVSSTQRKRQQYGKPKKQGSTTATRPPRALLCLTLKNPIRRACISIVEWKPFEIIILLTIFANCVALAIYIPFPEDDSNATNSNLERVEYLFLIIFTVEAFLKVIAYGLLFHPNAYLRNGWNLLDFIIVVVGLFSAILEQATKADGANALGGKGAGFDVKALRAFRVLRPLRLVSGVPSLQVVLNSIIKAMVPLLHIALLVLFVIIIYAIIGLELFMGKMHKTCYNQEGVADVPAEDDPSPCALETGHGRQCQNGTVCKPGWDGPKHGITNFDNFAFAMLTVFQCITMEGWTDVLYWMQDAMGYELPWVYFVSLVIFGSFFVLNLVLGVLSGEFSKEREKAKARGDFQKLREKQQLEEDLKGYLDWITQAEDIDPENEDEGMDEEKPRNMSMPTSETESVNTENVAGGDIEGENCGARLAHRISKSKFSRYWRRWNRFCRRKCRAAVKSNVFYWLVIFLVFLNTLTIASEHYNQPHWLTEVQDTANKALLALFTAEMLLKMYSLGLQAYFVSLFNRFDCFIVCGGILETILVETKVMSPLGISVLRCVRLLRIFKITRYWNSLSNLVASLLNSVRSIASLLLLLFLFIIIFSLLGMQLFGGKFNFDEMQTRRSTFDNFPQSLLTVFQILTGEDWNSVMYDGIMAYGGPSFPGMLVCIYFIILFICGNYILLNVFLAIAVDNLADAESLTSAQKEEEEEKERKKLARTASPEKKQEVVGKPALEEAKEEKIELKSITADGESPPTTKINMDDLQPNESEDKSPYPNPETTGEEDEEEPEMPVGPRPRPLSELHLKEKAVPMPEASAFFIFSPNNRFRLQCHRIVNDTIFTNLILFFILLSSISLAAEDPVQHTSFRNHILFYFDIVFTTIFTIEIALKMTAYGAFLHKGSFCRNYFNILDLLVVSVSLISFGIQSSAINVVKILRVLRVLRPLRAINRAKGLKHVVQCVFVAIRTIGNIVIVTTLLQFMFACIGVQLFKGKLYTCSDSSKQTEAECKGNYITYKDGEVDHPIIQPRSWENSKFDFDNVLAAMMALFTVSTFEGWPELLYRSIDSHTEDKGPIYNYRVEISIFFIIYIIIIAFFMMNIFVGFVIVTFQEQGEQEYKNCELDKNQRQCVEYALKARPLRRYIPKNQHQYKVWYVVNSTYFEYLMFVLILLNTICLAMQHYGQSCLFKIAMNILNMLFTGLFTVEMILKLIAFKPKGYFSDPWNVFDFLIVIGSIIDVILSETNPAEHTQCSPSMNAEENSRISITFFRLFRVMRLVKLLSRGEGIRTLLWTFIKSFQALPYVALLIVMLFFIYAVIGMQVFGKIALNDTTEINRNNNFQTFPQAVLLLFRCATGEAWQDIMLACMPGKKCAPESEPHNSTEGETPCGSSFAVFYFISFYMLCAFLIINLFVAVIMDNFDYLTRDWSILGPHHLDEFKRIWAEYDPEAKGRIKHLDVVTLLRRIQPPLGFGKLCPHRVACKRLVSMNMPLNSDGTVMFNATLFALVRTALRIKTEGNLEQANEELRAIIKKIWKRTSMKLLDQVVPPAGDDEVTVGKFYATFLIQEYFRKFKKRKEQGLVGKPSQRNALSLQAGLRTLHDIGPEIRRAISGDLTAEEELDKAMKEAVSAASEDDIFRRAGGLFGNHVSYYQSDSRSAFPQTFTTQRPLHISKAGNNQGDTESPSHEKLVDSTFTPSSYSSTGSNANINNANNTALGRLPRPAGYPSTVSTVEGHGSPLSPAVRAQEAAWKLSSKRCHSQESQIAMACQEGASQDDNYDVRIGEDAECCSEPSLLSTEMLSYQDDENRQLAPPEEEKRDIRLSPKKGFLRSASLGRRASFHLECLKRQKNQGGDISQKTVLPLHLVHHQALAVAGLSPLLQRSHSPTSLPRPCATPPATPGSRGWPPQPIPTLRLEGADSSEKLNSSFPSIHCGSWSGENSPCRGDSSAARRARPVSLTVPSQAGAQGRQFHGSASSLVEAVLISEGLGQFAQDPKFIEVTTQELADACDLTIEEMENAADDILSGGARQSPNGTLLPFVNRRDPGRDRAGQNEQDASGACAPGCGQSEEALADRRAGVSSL
# UniProt Q5BKY1: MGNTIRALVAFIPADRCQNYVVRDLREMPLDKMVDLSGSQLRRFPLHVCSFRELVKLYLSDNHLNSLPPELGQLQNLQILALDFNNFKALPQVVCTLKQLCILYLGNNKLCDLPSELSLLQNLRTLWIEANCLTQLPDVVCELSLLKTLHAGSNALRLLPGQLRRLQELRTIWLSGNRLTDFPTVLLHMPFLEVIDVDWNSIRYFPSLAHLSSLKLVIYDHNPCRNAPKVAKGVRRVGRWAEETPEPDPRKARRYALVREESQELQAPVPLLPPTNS
# These are yes or no findings as the source states them, for the method shown. Binding seen in cells or lysates may run through a third protein. Some binding calls cover weakened binding; strength is not graded here.
# Target: holo CaV1.2 with Venus on its carboxy terminus (rabbit) (UniProt P15381)
# Experiment: FRET or BRET
substance,measurement,value
full-length human LRRC10 with C-terminal Cerulean (from UniProt Q5BKY1 1-277),binding,binds
